# Read-outs that look alike come from different tables or passages of the source. Results are given in words; binding and its absence hold for the method and conditions named. In cells and extracts the contact can be indirect. Some binding calls cover weakened binding; strength is not graded here.
# Amino acid sequences for entries named in this document (tags omitted).
# UniProt O15169: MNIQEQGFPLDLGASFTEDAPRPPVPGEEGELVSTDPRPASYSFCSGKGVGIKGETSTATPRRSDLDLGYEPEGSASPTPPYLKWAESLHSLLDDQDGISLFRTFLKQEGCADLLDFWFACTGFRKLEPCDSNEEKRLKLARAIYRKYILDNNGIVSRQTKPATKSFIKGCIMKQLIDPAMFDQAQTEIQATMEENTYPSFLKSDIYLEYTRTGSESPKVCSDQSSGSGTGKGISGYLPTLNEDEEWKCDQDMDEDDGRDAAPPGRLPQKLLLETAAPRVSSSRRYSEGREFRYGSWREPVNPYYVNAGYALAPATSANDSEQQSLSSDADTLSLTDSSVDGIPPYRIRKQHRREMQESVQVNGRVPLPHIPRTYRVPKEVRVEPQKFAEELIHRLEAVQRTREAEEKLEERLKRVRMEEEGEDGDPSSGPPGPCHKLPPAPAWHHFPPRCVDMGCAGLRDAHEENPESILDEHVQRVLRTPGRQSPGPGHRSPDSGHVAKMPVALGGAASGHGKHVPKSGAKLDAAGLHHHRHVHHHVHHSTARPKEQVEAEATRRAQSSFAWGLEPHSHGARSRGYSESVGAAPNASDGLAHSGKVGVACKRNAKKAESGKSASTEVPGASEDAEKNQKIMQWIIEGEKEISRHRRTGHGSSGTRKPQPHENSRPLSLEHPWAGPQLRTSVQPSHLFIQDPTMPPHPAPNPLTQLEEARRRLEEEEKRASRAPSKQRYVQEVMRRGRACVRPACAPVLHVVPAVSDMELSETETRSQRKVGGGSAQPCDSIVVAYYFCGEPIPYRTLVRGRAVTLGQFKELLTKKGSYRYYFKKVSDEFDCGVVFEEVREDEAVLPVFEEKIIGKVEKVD
# UniProt Q93009: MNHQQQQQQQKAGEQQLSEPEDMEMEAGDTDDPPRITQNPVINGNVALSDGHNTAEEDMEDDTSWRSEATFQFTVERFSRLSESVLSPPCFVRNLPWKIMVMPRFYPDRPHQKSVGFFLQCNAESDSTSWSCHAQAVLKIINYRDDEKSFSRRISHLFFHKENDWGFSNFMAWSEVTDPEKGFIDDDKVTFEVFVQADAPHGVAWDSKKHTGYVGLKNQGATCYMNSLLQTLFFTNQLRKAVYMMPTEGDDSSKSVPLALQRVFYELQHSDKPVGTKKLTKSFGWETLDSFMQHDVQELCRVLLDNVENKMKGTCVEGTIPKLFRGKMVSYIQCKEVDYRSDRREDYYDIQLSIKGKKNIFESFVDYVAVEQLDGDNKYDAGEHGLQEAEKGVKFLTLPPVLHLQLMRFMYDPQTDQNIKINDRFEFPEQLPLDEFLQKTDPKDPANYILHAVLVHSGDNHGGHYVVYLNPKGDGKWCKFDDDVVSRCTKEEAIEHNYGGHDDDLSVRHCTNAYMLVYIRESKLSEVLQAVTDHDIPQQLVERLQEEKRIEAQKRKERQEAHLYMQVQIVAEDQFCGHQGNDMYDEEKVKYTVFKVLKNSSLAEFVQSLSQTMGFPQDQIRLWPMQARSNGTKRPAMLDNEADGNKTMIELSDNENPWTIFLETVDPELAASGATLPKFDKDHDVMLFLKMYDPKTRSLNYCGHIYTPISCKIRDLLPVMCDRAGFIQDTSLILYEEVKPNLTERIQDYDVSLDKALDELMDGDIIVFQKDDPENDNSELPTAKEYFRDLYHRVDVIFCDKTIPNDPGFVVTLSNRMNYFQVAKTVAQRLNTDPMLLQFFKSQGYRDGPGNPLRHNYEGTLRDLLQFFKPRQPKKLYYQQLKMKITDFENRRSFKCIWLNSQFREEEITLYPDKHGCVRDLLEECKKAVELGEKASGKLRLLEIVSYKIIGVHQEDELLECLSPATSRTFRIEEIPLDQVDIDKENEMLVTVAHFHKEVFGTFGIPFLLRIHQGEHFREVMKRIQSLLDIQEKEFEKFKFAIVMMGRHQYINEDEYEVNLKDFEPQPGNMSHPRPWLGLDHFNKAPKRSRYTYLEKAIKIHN
# UniProt P35222: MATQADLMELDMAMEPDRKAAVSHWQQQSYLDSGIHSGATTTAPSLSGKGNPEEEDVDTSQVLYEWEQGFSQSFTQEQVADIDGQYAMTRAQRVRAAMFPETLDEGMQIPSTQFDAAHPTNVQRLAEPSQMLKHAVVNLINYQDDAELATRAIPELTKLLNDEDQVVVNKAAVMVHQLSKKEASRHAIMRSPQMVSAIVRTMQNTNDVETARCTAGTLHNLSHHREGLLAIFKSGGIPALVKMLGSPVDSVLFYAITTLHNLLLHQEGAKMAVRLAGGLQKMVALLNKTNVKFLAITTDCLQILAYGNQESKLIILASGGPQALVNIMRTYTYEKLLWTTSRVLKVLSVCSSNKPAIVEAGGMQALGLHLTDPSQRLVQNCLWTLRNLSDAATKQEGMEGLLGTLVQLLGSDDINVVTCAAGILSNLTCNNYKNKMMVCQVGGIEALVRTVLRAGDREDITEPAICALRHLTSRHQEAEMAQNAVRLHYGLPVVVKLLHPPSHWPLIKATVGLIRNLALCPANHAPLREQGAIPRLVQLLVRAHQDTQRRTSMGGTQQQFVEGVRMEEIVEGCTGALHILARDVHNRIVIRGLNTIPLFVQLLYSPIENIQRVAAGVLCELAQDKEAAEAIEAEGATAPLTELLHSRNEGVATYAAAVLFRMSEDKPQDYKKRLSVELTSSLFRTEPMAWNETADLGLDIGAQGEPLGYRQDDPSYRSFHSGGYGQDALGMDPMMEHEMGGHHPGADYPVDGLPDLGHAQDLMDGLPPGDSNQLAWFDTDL
# Experiments:
# [1] = biological target: AXIN1 (human (endogenous in HEK293T)) (UniProt O15169); experiment: co-IP; endogenous AXIN1 immunoprecipitated with AXIN1-specific antibody from HEK293T WT and CRISPR-targeted APC-truncated lines (also APC4 with RNF220 or USP7 CRISPR targeting); cells pre-treated with 10 μM MG132 for 4 hr; western blot
# [2] = biological target: AXIN1 (human (endogenous in HEK293T)) (UniProt O15169); experiment: as above; remark: listed apart in the source
binding [1],binding [2],Molecule
binds,–,USP7 (ubiquitin-specific peptidase 7) (from UniProt Q93009 1-1102) (enzyme)
binds,–,β-catenin (from UniProt P35222 1-781)
–,no binding,"E3 ligase RNF220 (protein, UniProt Q5VTB9 1-566) MDLHRAAFKMENSSYLPNPLASPALMVLASTAEASRDASIPCQQPRPFGVPVSVDKDVHIPFTNGSYTFASMYHRQGGVPGTFANRDFPPSLLHLHPQFAPPNLDCTPISMLNHSGVGAFRPFASTEDRESYQSAFTPAKRLKNCHDTESPHLRFSDADGKEYDFGTQLPSSSPGSLKVDDTGKKIFAVSGLISDREASSSPEDRNDRCKKKAAALFDSQAPICPICQVLLRPSELQEHMEQELEQLAQLPSSKNSLLKDAMAPGTPKSLLLSASIKREGESPTASPHSSATDDLHHSDRYQTFLRVRANRQTRLNARIGKMKRRKQDEGQREGSCMAEDDAVDIEHENNNRFEEYEWCGQKRIRATTLLEGGFRGSGFIMCSGKENPDSDADLDVDGDDTLEYGKPQYTEADVIPCTGEEPGEAKEREALRGAVLNGGPPSTRITPEFSKWASDEMPSTSNGESSKQEAMQKTCKNSDIEKITEDSAVTTFEALKARVRELERQLSRGDRYKCLICMDSYSMPLTSIQCWHVHCEECWLRTLGAKKLCPQCNTITAPGDLRRIYL"

# Reference: article PMC5656747
